PubChem BioAssay AID1508597, Cure First – 2020

Screen: 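Knock-downs altering ovarian cancer cell survival with or without PARP inhibitor rucaparib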 (primary screen)
Cell system: human ovarian carcinoma lines grown from tumours: OCI-P5x (papillary serous) and OCI-C5x (clear cell)
Reagent: siRNA pool against human genes, 1.25 pmol siRNA per well
Time to read-out: 72 h or 96 h, depending on the cell culture
Treatment: rucaparib 20 µM (about IC30) or vehicle, present until read-out
Detection: 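ATP luminescence measured at 72 or 96 h according to the culture, then normalised and expressed as percent viability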
Direction: viability, normalised: higher = more viable cells remaining
Active means: 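Active when normalised viability falls below 80 percent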
Calls: active = viability under 80%; inactive = viability 80% or more
Shown is a random part of about 2,100 deposited reagents. 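Calls flag viability under 80% in either arm, not effects specific to rucaparib; the reference for percent is not stated.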 A number with no mark means an inactive call. The record does not give: the 100% reference.

no.	Gene	rucaparib or vehicle	cell line	technical replicate	viability, normalised (%)
1	DHX29	Rucaparib	OCI-C5x (clear cell)	1	46.2 (active)
2	DHX29	Rucaparib	OCI-C5x (clear cell)	2	59.2 (active)
3	DHX29	Rucaparib	OCI-C5x (clear cell)	3	43 (active)
4	DHX29	Rucaparib	OCI-P5x (serous)	1	58.9 (active)
5	DHX29	Rucaparib	OCI-P5x (serous)	2	63.1 (active)
6	DHX29	Rucaparib	OCI-P5x (serous)	3	62.7 (active)
7	DHX29	Vehicle	OCI-C5x (clear cell)	1	44.7 (active)
8	DHX29	Vehicle	OCI-C5x (clear cell)	2	63 (active)
9	DHX29	Vehicle	OCI-C5x (clear cell)	3	47.1 (active)
10	DHX29	Vehicle	OCI-P5x (serous)	1	62.6 (active)
11	DHX29	Vehicle	OCI-P5x (serous)	2	60.6 (active)
12	DHX29	Vehicle	OCI-P5x (serous)	3	63.2 (active)
13	RFK	Rucaparib	OCI-C5x (clear cell)	1	44.7 (active)
14	RFK	Rucaparib	OCI-C5x (clear cell)	2	44.4 (active)
15	RFK	Rucaparib	OCI-C5x (clear cell)	3	56.4 (active)
16	RFK	Rucaparib	OCI-P5x (serous)	1	82.4
17	RFK	Rucaparib	OCI-P5x (serous)	2	64.8 (active)
18	RFK	Rucaparib	OCI-P5x (serous)	3	90.6
19	RFK	Vehicle	OCI-C5x (clear cell)	1	44.5 (active)
20	RFK	Vehicle	OCI-C5x (clear cell)	2	58.4 (active)
21	RFK	Vehicle	OCI-C5x (clear cell)	3	43.9 (active)
22	RFK	Vehicle	OCI-P5x (serous)	1	78.9 (active)
23	RFK	Vehicle	OCI-P5x (serous)	2	69.7 (active)
24	RFK	Vehicle	OCI-P5x (serous)	3	52 (active)
25	SIRT5	Rucaparib	OCI-C5x (clear cell)	1	45.1 (active)
26	SIRT5	Rucaparib	OCI-C5x (clear cell)	2	35.6 (active)
27	SIRT5	Rucaparib	OCI-C5x (clear cell)	3	36.2 (active)
28	SIRT5	Rucaparib	OCI-P5x (serous)	1	53.2 (active)
29	SIRT5	Rucaparib	OCI-P5x (serous)	2	38.4 (active)
30	SIRT5	Rucaparib	OCI-P5x (serous)	3	55.3 (active)
31	SIRT5	Vehicle	OCI-C5x (clear cell)	1	28.5 (active)
32	SIRT5	Vehicle	OCI-C5x (clear cell)	2	59.3 (active)
33	SIRT5	Vehicle	OCI-C5x (clear cell)	3	53.4 (active)
34	SIRT5	Vehicle	OCI-P5x (serous)	1	50.1 (active)
35	SIRT5	Vehicle	OCI-P5x (serous)	2	68.5 (active)
36	SIRT5	Vehicle	OCI-P5x (serous)	3	78.2 (active)

Continued; the last 5 above are carried over.
no.	Gene	rucaparib or vehicle	cell line	technical replicate	viability, normalised (%)
32	SIRT5	Vehicle	OCI-C5x (clear cell)	2	59.3 (active)
33	SIRT5	Vehicle	OCI-C5x (clear cell)	3	53.4 (active)
34	SIRT5	Vehicle	OCI-P5x (serous)	1	50.1 (active)
35	SIRT5	Vehicle	OCI-P5x (serous)	2	68.5 (active)
36	SIRT5	Vehicle	OCI-P5x (serous)	3	78.2 (active)
37	HIPK1	Rucaparib	OCI-C5x (clear cell)	1	60.7 (active)
38	HIPK1	Rucaparib	OCI-C5x (clear cell)	2	58.3 (active)
39	HIPK1	Rucaparib	OCI-C5x (clear cell)	3	60.7 (active)
40	HIPK1	Rucaparib	OCI-P5x (serous)	1	118
41	HIPK1	Rucaparib	OCI-P5x (serous)	2	112
42	HIPK1	Rucaparib	OCI-P5x (serous)	3	100
43	HIPK1	Vehicle	OCI-C5x (clear cell)	1	72 (active)
44	HIPK1	Vehicle	OCI-C5x (clear cell)	2	68.9 (active)
45	HIPK1	Vehicle	OCI-C5x (clear cell)	3	64.9 (active)
46	HIPK1	Vehicle	OCI-P5x (serous)	1	101
47	HIPK1	Vehicle	OCI-P5x (serous)	2	84.1
48	HIPK1	Vehicle	OCI-P5x (serous)	3	83.3
49	PHF13	Rucaparib	OCI-C5x (clear cell)	1	51.6 (active)
50	PHF13	Rucaparib	OCI-C5x (clear cell)	2	32.8 (active)
51	PHF13	Rucaparib	OCI-C5x (clear cell)	3	32.9 (active)
52	PHF13	Rucaparib	OCI-P5x (serous)	1	39.2 (active)
53	PHF13	Rucaparib	OCI-P5x (serous)	2	40.6 (active)
54	PHF13	Rucaparib	OCI-P5x (serous)	3	43.4 (active)
55	PHF13	Vehicle	OCI-C5x (clear cell)	1	39.7 (active)
56	PHF13	Vehicle	OCI-C5x (clear cell)	2	33.1 (active)
57	PHF13	Vehicle	OCI-C5x (clear cell)	3	30.6 (active)
58	PHF13	Vehicle	OCI-P5x (serous)	1	33.4 (active)
59	PHF13	Vehicle	OCI-P5x (serous)	2	38.1 (active)
60	PHF13	Vehicle	OCI-P5x (serous)	3	47.5 (active)
